# Laboratory results: PubChem BioAssay AID485314 (National Center for Advancing Translational Sciences (NCATS), 2010)
# The campaign covered roughly 340,000 compounds. About 4,500 (1.3%) were called active. The shares of active, inactive and inconclusive entries below differ from those in the screen. Calls follow the shape of the dose curve; as a rule, active = well fitted inhibition curve with a large enough effect; inconclusive = small, poorly fitted or top-dose-only effect, or another doubt; inactive = no such curve, though single readings can be large or run the other way. Potencies beside an inconclusive call are fits to weak or partial responses and may not hold up.
# Target: DNA polymerase beta (Homo sapiens) (UniProt P06746)
# Experiment: qHTS Assay for Inhibitors of DNA Polymerase Beta
# Conditions: Pol beta primer extension/strand displacement, fluorescence kinetic; activity change, negative = inhibition: at 114 µM (top of the series)
# Method in brief: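 Preincubation: enzyme (10 nM) with compound, 15 min, RT. Reaction: substrate added to 50 nM final. Reads: 0 and 10 min. Analysis: normalized, Hill fit.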
# % is scaled to controls: 0 for no effect and ±100 for the full control effect; potency is read from the fitted curve at half-maximal effect.
SMILES,Potency,"activity change, negative = inhibition"
CC(=O)C1=C(O)C=C(c2ccco2)CC1c1ccco1 (stereo not drawn),"inconclusive: 39.8 µM [inhibitor, partial curve, poor fit]",
O=C(O)CC1S/C(=N/N=C/c2ccc(-c3ccc(Cl)c([N+](=O)[O-])c3)o2)NC1=O (stereo not drawn),"inconclusive: 44.7 µM [inhibitor, partial curve, poor fit]",
C/C=C(/C)C(=O)O[C@@H]1c2cc3c(c4c2[C@@]2(CO4)C(=O)C(OC)=C(OC)C=C2C[C@@H](C)[C@H]1C)OCO3,"inconclusive: 0.562 µM [inhibitor, full curve, poor fit]",
CC(C)C(=O)NC(c1ccccc1)c1cc([N+](=O)[O-])c2cccnc2c1O (stereo not drawn),"inconclusive: 89.1 µM [inhibitor, single point]",
COc1ccccc1N1CCN(C(=O)CC2NC3CCCCC3NC2=O)CC1 (stereo not drawn),"inconclusive: 25.1 µM [inhibitor, single point]",
O=C(CSc1nc2ccccc2s1)CSc1nc2ccccc2s1,"inconclusive: 2.24 µM [inhibitor, full curve, poor fit]",
Nc1c(Cl)ncnc1N/N=C/c1ccc2ccccc2n1,"inconclusive: 10 µM [inhibitor, full curve]",
O=C(/C=C/c1ccc2ccccc2n1)N1CCN(c2ccccc2)CC1,"inconclusive: 100 µM [inhibitor, partial curve, poor fit]",
Cc1ccc(C)c2[nH]c(=O)c(CCNC(=O)c3ccc(S(=O)(=O)N4CCOCC4)cc3)cc12,"inconclusive: 25.1 µM [inhibitor, single point]",
Cc1ccc(S(=O)(=O)Cc2ccc(C(=O)NC3CCCCCC3)o2)cc1,inactive,
CC(C)N(C(=O)Nc1ccc2nsnc2c1)C(C)C,active: 10 µM,
O=C(O)C1C2C=CC3(O2)C1C(=O)N1c2ccccc2C2OCCC2C13 (stereo not drawn),active: 39.8 µM,
CCOc1ccc(-c2nnc(SCC(=O)NCc3ccc(C)cc3)nc2-c2ccc(OCC)cc2)cc1,inactive,
CCOC(=O)c1c(N)sc2c1CCN(CCc1ccccc1)C2,"inconclusive: 63.1 µM [inhibitor, partial curve, poor fit]",
CCc1ccccc1NS(=O)(=O)c1ccc2c(c1)OCC(C(=O)N1CCCC1)O2 (stereo not drawn),"inconclusive: 89.1 µM [inhibitor, single point]",
CCOCc1cc(CN2CCN(c3cccc(Cl)c3)CC2)c(O)c2ncccc12,inactive,
Cc1onc(-c2ccccc2Cl)c1C(=O)Nc1sc2c(c1C#N)CCC2,"inconclusive: 31.6 µM [inhibitor, partial curve]",
COc1ccc2nc3sc(C(=O)NCCN4CCc5ccccc5C4)cc3cc2c1,active: 20 µM,
Oc1ccc(/C=N/Nc2nc(N3CCCCCC3)nc(N3CCCCCC3)n2)c(O)c1,"inconclusive: 28.2 µM [inhibitor, full curve]",
CN(C(=O)CCCN1CCCC1=O)C1CCCN(Cc2ccccc2F)C1 (stereo not drawn),"inconclusive: 39.8 µM [inhibitor, single point]",
Cc1c(O)ccc(-c2[nH]ncc2-c2nc3ccccc3s2)c1O,"inconclusive: 20 µM [inhibitor, partial curve]",
Cc1ccc(C(=O)NCc2ccco2)o1,"inconclusive: 15.8 µM [inhibitor, single point]",

SMILES,Potency,"activity change, negative = inhibition"
O=C(Nc1cccc(Cl)c1)Nc1cnccn1,"inconclusive: 3.16 µM [inhibitor, full curve]",
CCOC(=O)CSc1nc2ccc(NC(=O)c3ccccc3F)cc2s1,"inconclusive: 100 µM [inhibitor, single point]",
CC(Sc1nnc2c(n1)[nH]c1ccccc12)C(=O)NC1CCCCC1 (stereo not drawn),active: 44.7 µM,
O=C(COc1ccccc1[N+](=O)[O-])N/N=C/c1ccc(O)c([N+](=O)[O-])c1,inactive,
CCCCOc1ccc(-c2nnn(CC(=O)NCc3ccco3)n2)cc1,inactive,
Cc1cccc(Cn2nnc3c(=O)[nH]c(C4CCN(C(=O)c5ccc(F)cc5)CC4)nc32)c1,inactive,
O=C(Nc1ccc(F)cc1F)N1CCN(C(=O)c2ccco2)CC1,"inconclusive: 89.1 µM [inhibitor, single point]",
Cc1ccc2oc(-c3cc(NC(=O)/C=C/c4ccco4)ccc3Cl)nc2c1,,inconclusive: -58.6% [inhibitor]
CC(=O)Nc1nonc1-c1nc2ccccc2n1Cc1ccccc1Br,"inconclusive: 11.2 µM [inhibitor, partial curve]",
CCN1C(=O)/C(=C/c2cccs2)S/C1=N\S(=O)(=O)c1ccc(C)cc1,inactive,
COc1c2ccoc2c(OC)c2oc(=O)ccc12,"inconclusive: 17.8 µM [inhibitor, single point]",
Cc1ccc2c(c1)N(C(=O)Nc1cccc3c1CCCC3)CC(C)O2 (stereo not drawn),inactive,
O=c1[nH]c(O)c(C=Nc2ccc(Cl)cc2Cl)c(=O)[nH]1,,inconclusive: -39.4% [inhibitor]
COc1ccccc1NC(=O)COC(=O)c1ccc(S(=O)(=O)NCc2ccco2)cc1,"inconclusive: 50.1 µM [inhibitor, partial curve]",
CCOC(=O)NC1(NC2CCCCC2)Oc2ccccc2O1,active: 25.1 µM,
CC1C(=O)N(Cc2ccccc2)c2ccccc2N1C(=O)c1ccccc1 (stereo not drawn),"inconclusive: 25.1 µM [inhibitor, single point]",
CCCCNS(=O)(=O)c1cc2c3c(c1)CCN3C(=O)CC2,"inconclusive: 0.141 µM [inhibitor, full curve, poor fit]",
CCOc1ccc(NC(=O)CN2CCN(CC(=O)Nc3ccc(C(N)=O)cc3)CC2)cc1,"inconclusive: 79.4 µM [inhibitor, partial curve, poor fit]",
CSc1nnc(C)c(/C=C/Nc2ccc(C)cc2)n1,"inconclusive: 28.2 µM [inhibitor, partial curve]",
Cc1cccc(/C=C2\CCC(=C3SCCCS3)C2=O)c1,"inconclusive: 10 µM [inhibitor, full curve]",
COc1ccc([C@@H]2CC(=O)c3c(O)cc(O[C@@H]4O[C@H](CO[C@@H]5O[C@@H](C)[C@H](O)[C@@H](O)[C@H]5O)[C@@H](O)[C@H](O)[C@H]4O)cc3O2)cc1O,"inconclusive: 44.7 µM [inhibitor, partial curve]",
COc1ccc(CCNC(=O)Cn2cc(C(=O)c3ccc(F)cc3)c(=O)c3ccc(C)nc32)cc1OC,"inconclusive: 20 µM [inhibitor, full curve, poor fit]",
CCCCC(=O)NNC(=S)NCc1ccccc1,"inconclusive: 89.1 µM [inhibitor, single point]",

# Three of the compounds above, bar-delimited:
SMILES | Potency | activity change, negative = inhibition
Cc1ccc2oc(-c3cc(NC(=O)/C=C/c4ccco4)ccc3Cl)nc2c1 |  | inconclusive: -58.6% [inhibitor]
CC(=O)Nc1nonc1-c1nc2ccccc2n1Cc1ccccc1Br | inconclusive: 11.2 µM [inhibitor, partial curve] | 
CCN1C(=O)/C(=C/c2cccs2)S/C1=N\S(=O)(=O)c1ccc(C)cc1 | inactive | 

# Later entries

SMILES,Potency,"activity change, negative = inhibition"
Cc1ccc(-c2nc3cc(C(C)C)ccc3o2)cc1NC(=O)c1cc([N+](=O)[O-])ccc1N1CCOCC1,inactive,
CCOC(=O)c1ccc(NC2=CC(=O)CC(c3ccco3)C2)cc1 (stereo not drawn),"inconclusive: 0.282 µM [inhibitor, full curve, poor fit]",
Cc1c(O)ccc(/C(Cc2ccc3ccccc3n2)=N\O)c1O,"inconclusive: 22.4 µM [inhibitor, partial curve, poor fit]",
Cc1cc(C)cc(N2CCn3c2nc2c3c(=O)n(CCCc3ccccc3)c(=O)n2C)c1,inactive,
CC(=O)N(CCC(Cc1ccccc1)c1ccco1)Cc1ccco1 (stereo not drawn),,inconclusive: -68.6% [inhibitor]
CCOC(=O)C1=C(N)n2c(s/c(=C/c3ccco3)c2=O)=C(C(=O)OC)C1c1ccco1 (stereo not drawn),active: 28.2 µM,
COC(=O)C1(C(=O)OC)Sc2ccccc2C1=O,"inconclusive: 31.6 µM [inhibitor, full curve]",
COCCNC(=S)N/N=C(\C)c1ccc(Cl)c(Cl)c1,inactive,
Cc1ccc(NC(=O)c2cc(NC(=O)c3ccccc3C(=O)O)ccc2N2CCCCC2)cc1,inactive,
CCCCNc1nc2c(-c3ccccc3)nnn2c2ccccc12,"inconclusive: 1.12 µM [inhibitor, full curve, poor fit]",
COc1cc2cc(Oc3ccc4ccc(=O)oc4c3)c(=O)oc2cc1O,"inconclusive: 44.7 µM [inhibitor, partial curve]",
Cc1ccc(NC(=O)CS(=O)CC(=O)NC(C)CCc2ccco2)cc1Cl (stereo not drawn),active: 31.6 µM,
COc1ccccc1-c1cc2nc(C)c(CCC(=O)Nc3cc(C)ccc3C)c(C)n2n1,"inconclusive: 0.794 µM [inhibitor, full curve, poor fit]",
CCc1cccc(NC(=O)c2ccc(CNS(=O)(=O)c3ccc4c(c3)C(C)(C)C(=O)N4C)cc2)c1,inactive,
O=C(CSc1ccc(-c2ccco2)nn1)Nc1ccccc1F,"inconclusive: 44.7 µM [inhibitor, partial curve]",
COc1cc(-c2noc(CCCC(=O)Nc3cccnc3)n2)cc(OC)c1OC,"inconclusive: 79.4 µM [inhibitor, single point]",
CC1=C/C(=C/N(C)c2ccccc2)C(=O)S1,"inconclusive: 25.1 µM [inhibitor, full curve, poor fit]",
CCOc1ccc(CCNC(=O)c2cc3sc(CC)cc3n2C)cc1OCC,"inconclusive: 31.6 µM [inhibitor, single point]",
COc1ccc(/C(O)=C2/C(=O)C(=O)N(CCN(C)C)C2c2ccc(F)cc2)cc1Cl (stereo not drawn),inactive,
Cc1ccccc1NC(=S)NC(=O)/C=C/c1ccco1,active: 31.6 µM,
COc1ccc2[nH]c(O)c(N=NC(=O)Cc3cccs3)c2c1,,inconclusive: -57.1% [inhibitor]
Cc1ccc(CNC(=O)c2ccc(-c3nc(CS(=O)(=O)c4ccc(C)cc4)c(C)o3)cc2)cc1,inactive,
